Values quoted from earlier work in US11225464B2, “Compositions and methods for the treatment of gastrointestinal polyps” (CELLIX BIO PRIVATE LIMITED, priority 2016, dated 2022).
At least one structure is not confirmed: it was looked up by name or label, or the drawing left a doubt.

How the values were obtained:
colorectal adenomas = settings: FAP patients
duodenal adenomas = settings: FAP patients

SMILES: Cc1ccc(-c2cc(C(F)(F)F)nn2-c2ccc(S(N)(=O)=O)cc2)cc1 [celecoxib]
- reduction of the number of colorectal adenomas (colorectal adenomas): 28%
- effect on duodenal polyposis / number of duodenal adenomas (duodenal adenomas): also reduced the number of duodenal adenomas
